# Measured values from the supplement of paper PMC7752906.
# Counter-ions that a name gives are not always drawn. The list shows a part of the results. Repeats in this data set agree poorly, so a single value says little.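 Test system: Schistosoma mansoni schistosomula, roughly 40 per well, imaged in bright field over time and compared with wells given 0.1% DMSO. Distance read-out: the paper calls a drug a hit when its Mahalanobis distance is at least 2.47, three standard deviations above the DMSO control mean. Degeneracy is the share of worms classified opaque.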 Numbered stars: 1 amine (or outer) side, 2 acyl side, 3 side chain; on linkers, the order of the positions; unused ones are H or OH. Bridge positions count the residues as written; N and C are the ends. Square brackets hold non-standard residues; d marks the D form. Peptide text beside a SMILES is read from it. * marks the point of attachment. ξ: configuration not given here. X2 = N=C1NCCC([C@H](N[*:1])C(=O)[*:2])N1; ΔAla(Z-3-ureido) = NC(=O)N/C=C(\N)C(=O)O; ξβ3hOrn = NCCCC(N)CC(=O)*; Dap = NC[C@H](N)C(=O)O
# Test system: Schistosoma mansoni schistosomula
# Assay: Mahalanobis distance of static-rate-frequency phenotype descriptors from DMSO controls (dimensionless); higher = stronger phenotypic change versus DMSO
# Details: 10 µM; 72 h
row,Compound,Mahalanobis distance
1,NC[C@@H]1CC[C@@H](N)[C@@H](O[C@H]2[C@H](O)[C@@H](O[C@H]3O[C@H](CO)[C@@H](O)[C@H](N)[C@H]3O)[C@H](N)C[C@@H]2N)O1 [Dibekacin],inactive: 1.77
2,CCCCCCCCCCCCCCCC(=O)OC[C@@H](NC(=O)C(Cl)Cl)[C@H](O)c1ccc([N+](=O)[O-])cc1 [Chloramphenicol Palmitate],inactive: 2.01
3,Clc1ccc(Cn2c(CN3CCCC3)nc3ccccc32)cc1 [Clemizole Hydrochloride],inactive: 2.09
4,Clc1ccc(CO/N=C(\Cn2ccnc2)c2ccc(Cl)cc2Cl)c(Cl)c1 [Oxiconazole],active: 2.6
5,COc1ccc2cc([C@H](C)CO)ccc2c1 [Naproxol],inactive: 1.35
6,C#C[C@]1(OC(C)=O)CC[C@H]2[C@@H]3CCC4=CC(=NO)CC[C@@H]4[C@H]3CC[C@@]21CC (mixture of isomers) [Norgestimate],active: 2.98
7,CCCCC(CC)CCC(CC(C)C)OS(=O)(=O)O (stereo unspecified) [Sodium Tetradecyl Sulfate],inactive: 2.42
8,COc1cc(C(=O)NCc2ccc(OCCN(C)C)cc2)cc(OC)c1OC [Trimethobenzamide Hydrochloride],inactive: 1.98
9,CC(=O)[C@@]1(O)CC[C@H]2[C@@H]3C[C@H](C)C4=CC(=O)C=C[C@]4(C)[C@@]3(F)[C@@H](O)C[C@@]21C [Fluorometholone],inactive: 1.77
10,CCc1nc(N)nc(N)c1-c1ccc(Cl)cc1 [Pyrimethamine],inactive: 2.26
11,C1CCC(C(CC2CCCCN2)C2CCCCC2)CC1 (stereo unspecified) [perhexiline],active: 2.72
12,CCOc1nc2cccc(C(=O)OCc3oc(=O)oc3C)c2n1Cc1ccc(-c2ccccc2-c2noc(=O)[nH]2)cc1 [Azilsartan Kamedoxomil],inactive: 1.61
13,O=C(O)c1cn(C2CC2)c2cc(N3CCNCC3)c(F)cc2c1=O [Ciprofloxacin],inactive: 1.57
14,CCOC(=O)COc1ccc2c(=O)cc(-c3ccccc3)oc2c1 [Efloxate],inactive: 2.06
15,O=C(O)C(=O)O.[NH-][C@@H]1CCCC[C@H]1[NH-].[Pt+2] [Oxaliplatin],inactive: 1.59
16,C[C@H]1c2cccc(O)c2C(=O)C2=C(O)[C@]3(O)C(=O)C(C(N)=O)=C(O)[C@@H](N(C)C)[C@@H]3[C@@H](O)[C@@H]21 [Doxycycline],inactive: 1.34
17,O=C1/C(=C/c2cccs2)CCC/C1=C\c1cccs1 [tenylidone],active: 2.61
18,Clc1ccc(C(Cn2ccnc2)OCc2ccsc2Cl)c(Cl)c1 (stereo unspecified) [Tioconazole],active: 2.48
19,CC12CCC(CC1=O)C2(C)C [D-camphor],inactive: 1.79
20,C[C@@H]1NC(=O)[C@@H](N)CNC(=O)[C@H](C2CCNC(=N)N2)NC(=O)/C(=C/NC(N)=O)NC(=O)[C@H](CNC(=O)CC(N)CCCN)NC1=O.N=C1NCC[C@H]([C@@H]2NC(=O)/C(=C/NC(N)=O)NC(=O)[C@H](CNC(=O)C[C@@H](N)CCCN)NC(=O)[C@H](CO)NC(=O)[C@@H](N)CNC2=O)N1 [Capreomycin Sulfate] (H-[Dap]S[Dap](ξβ3hOrn)[ΔAla(Z-3-ureido)][X2]; lactam 1-C),inactive: 1.33
21,CN[C@@H]1[C@@H](O[C@H]2O[C@H](CO)[C@@H](N)[C@H](O)[C@H]2O)OC2C[C@@H](N)[C@@H](O[C@H]3[C@H](O)[C@@H](O)[C@H](N)C[C@@H]3N)OC2[C@@H]1O (stereo partly specified) [Apramycin Sulfate],inactive: 1.91

row,Compound,Mahalanobis distance
1,CC(=O)NC(Cc1ccccc1)C(=O)O (stereo unspecified) [Afalanine],inactive: 1.7
2,CCCCCCOC(=O)NC(=N)c1ccc(NCc2nc3cc(C(=O)N(CCC(=O)OCC)c4ccccn4)ccc3n2C)cc1 [Dabigatran Etexilate Mesylate],inactive: 1.76
3,"NCCCC(=O)O [Gaba, Gamma-aminobutyric Acid]",inactive: 1.77
4,CN[C@@H]1[C@H](O)[C@H](NC)[C@H]2O[C@@]3(O)C(=O)C[C@@H](C)O[C@H]3O[C@@H]2[C@H]1O [Spectinomycin],inactive: 2.34
5,NS(=O)(=O)c1cc2c(cc1Cl)NC(C(Cl)Cl)NS2(=O)=O (stereo unspecified) [Trichlormethiazide],inactive: 2.44
6,CC(C)Nc1cccnc1N1CCN(C(=O)c2cc3cc(NS(C)(=O)=O)ccc3[nH]2)CC1 [Delavirdine Mesylate],active: 4.04
7,C#Cc1cccc(Nc2ncnc3cc(OCCOC)c(OCCOC)cc23)c1 [Erlotinib],inactive: 1.6
8,Cc1onc(-c2ccccc2Cl)c1C(=O)N[C@@H]1C(=O)N2[C@@H]1SC(C)(C)[C@@H]2C(=O)O [Cloxacillin],active: 2.54
9,CN(C)CCC=C1c2ccccc2COc2ccccc21 [Doxepin],active: 3.33
10,CN(C)CCC=C1c2ccccc2COc2ccccc21 [Doxepin Hydrochloride],active: 3.81
11,OCc1cccnc1 [Nicotinyl Alcohol Tartrate],inactive: 2.15
12,Cn1cnc2c1c(=O)[nH]c(=O)n2C [Theobromine],inactive: 1.39
13,CC(C)(CO)C(O)C(=O)NCCCO (stereo unspecified) [Panthenol],active: 2.49
14,CCOc1ccc2ccccc2c1C(=O)N[C@@H]1C(=O)N2[C@@H]1SC(C)(C)[C@@H]2C(=O)O [Nafcillin Sodium],inactive: 2.35
15,C=C1/C(=C\C=C2/CCC[C@]3(C)[C@@H]([C@H](C)CCCC(C)C)CC[C@@H]23)C[C@@H](O)C[C@@H]1O [Alfacalcidol],active: 2.59
16,O=C(N[C@H](CO)[C@H](O)c1ccc([N+](=O)[O-])cc1)C(Cl)Cl [Chloramphenicol],active: 2.71
17,O=C(O)CCNC(=O)c1ccccc1 [Betamipron],inactive: 2.19
18,C[n+]1c2cc(N)ccc2cc2ccc(N)cc21 [Acriflavinium Hydrochloride],active: 3.61
19,CCOC(=O)C1=C(COCCN)NC(C)=C(C(=O)OC)C1c1ccccc1Cl (stereo unspecified) [Amlodipine Besylate],inactive: 1.87
20,CCOC(=O)C1=C(COCCN)NC(C)=C(C(=O)OC)C1c1ccccc1Cl (stereo unspecified) [amlodipine],inactive: 2.05
21,CCN(CC)CCNC(=O)c1c(C)[nH]c(/C=C2\C(=O)Nc3ccc(F)cc32)c1C [Sunitinib Malate],active: 2.85

row,Compound,Mahalanobis distance
1,Cc1c(N(C)C)c(=O)n(-c2ccccc2)n1C [Aminopyrine],inactive: 2.08
2,NC[C@@H]1O[C@H](O[C@H]2[C@@H](O)[C@H](O[C@@H]3[C@@H](O)[C@H](N)C[C@H](N)[C@H]3O[C@H]3O[C@H](CO)[C@@H](O)[C@H](O)[C@H]3N)O[C@@H]2CO)[C@H](N)[C@@H](O)[C@@H]1O [Paromomycin Sulfate],inactive: 2.03
3,CC[C@]1(O)C[C@H]2CN(CCc3c([nH]c4ccccc34)[C@@](C(=O)OC)(c3cc4c(cc3OC)N(C=O)[C@H]3[C@@](O)(C(=O)OC)[C@H](OC(C)=O)[C@]5(CC)C=CCN6CC[C@]43[C@@H]65)C2)C1 [Vincristine],active: 2.67
4,Cc1cccc(C)c1OCC(C)N (stereo unspecified) [Mexiletine],inactive: 1.63
5,CN1[C@@H]2CC[C@H]1C[C@@H](OC(=O)c1c[nH]c3ccccc13)C2 [Tropisetron],inactive: 1.9
6,O=C(OCC(O)CO)c1ccccc1Nc1ccnc2cc(Cl)ccc12 (stereo unspecified) [Glafenine],active: 3.01
7,C[C@H](CCC(=O)O)[C@H]1CC[C@H]2[C@@H]3[C@H](O)C[C@@H]4C[C@H](O)CC[C@]4(C)[C@H]3C[C@H](O)[C@]12C [Cholic Acid],inactive: 1.56
8,Cc1c(OCC(F)(F)F)ccnc1C[S@@+]([O-])c1nc2ccccc2[nH]1 [Dexlansoprazole],inactive: 1.94
9,C[C@H]1O[C@@H](O[C@H]2[C@@H](O)C[C@H](O[C@H]3[C@@H](O)C[C@H](O[C@H]4CC[C@@]5(C)[C@H](CC[C@@H]6[C@@H]5C[C@@H](O)[C@]5(C)[C@@H](C7=CC(=O)OC7)CC[C@]65O)C4)O[C@@H]3C)O[C@@H]2C)C[C@H](O)[C@@H]1O [Digoxin],active: 2.55
10,CO/N=C(\C(=O)N[C@@H]1C(=O)N2C(C(=O)O)=C(CSc3nnnn3C)CS[C@H]12)c1csc(N)n1 [Cefmenoxime Hydrochloride],inactive: 1.47
11,CN(C)C(=O)C(CCN1CCC(O)(c2ccc(Cl)cc2)CC1)(c1ccccc1)c1ccccc1 [Loperamide],inactive: 2.32
12,CC(C)(C)NCC(O)COc1cccc2c1CCC(=O)N2 (stereo unspecified) [Carteolol Hydrochloride],inactive: 1.95
13,CCOC(=O)O[C@]1(C(=O)COC(=O)CC)CC[C@H]2[C@@H]3CCC4=CC(=O)C=C[C@]4(C)[C@H]3[C@@H](O)C[C@@]21C [Prednicarbate],active: 3.68
14,COc1ccc2c(c1OC)C(=O)O[C@@H]2[C@H]1c2c(cc3c(c2OC)OCO3)CCN1C [Noscapine Hydrochloride],inactive: 2.16
15,O=C(C1CCCCC1)N1CC(=O)N2CCc3ccccc3C2C1 (stereo unspecified) [praziquantel],inactive: 2.27
16,CN(C(=O)C(Cl)Cl)c1ccc(OC(=O)c2ccco2)cc1 [Diloxanide Furoate],inactive: 1.76
17,Oc1c(I)cc(Cl)c2cccnc12 [Clioquinol],active: 3.38
18,CN(C)CCOC(C)(c1ccccc1)c1ccccn1 (stereo unspecified) [Doxylamine Succinate],inactive: 1.56
19,C=CCNC(N)=S [Allylthiourea],inactive: 1.5

# Taken from above:
# CC12CCC(CC1=O)C2(C)C [D-camphor] | Mahalanobis distance: inactive: 1.79
# CC(C)Nc1cccnc1N1CCN(C(=O)c2cc3cc(NS(C)(=O)=O)ccc3[nH]2)CC1 [Delavirdine Mesylate] | Mahalanobis distance: active: 4.04
# CN(C)CCOC(C)(c1ccccc1)c1ccccn1 (stereo unspecified) [Doxylamine Succinate] | Mahalanobis distance: inactive: 1.56
